Taken from: PubChem BioAssay AID686937 (Drosophila RNAi Screening Center, 2013)
The screen tested about 23,000 reagents; below is a random part of those with a known target gene and a result. 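Reduced-secretion tags in replicate 1 do not always agree with the z-scores; no criterion for assigning the tags was given.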 Reagents against one gene are numbered here. Names joined by + are all predicted targets of the reagent. Further read-outs or replicates are left out here. The record does not give: the amount of reagent.

Purpose: 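Knock-downs that reduce output of a secreted reporter enzyme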 (primary screen)
Cells: Drosophila S2 cells expressing secreted horseradish peroxidase
Reagent: long dsRNA against Drosophila genes
Time to read-out: about 5.5 days (5 days dsRNA, then 12 h reporter induction)
Treatment: reporter expression induced after 5 days of dsRNA, read 12 h later; inducer not stated
Read-out: 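After 5 days of dsRNA and 12 h of reporter induction, medium peroxidase read by chemiluminescence and scored as per-plate z-score; higher values mean more reporter released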
Direction: z-score: higher = more reporter secreted into medium

z-score, replicate 1, by gene and reagent
cag: #1 0.3
CG10459: #1 0.33; #2 0.72
Rpn5 (Regulatory particle non-ATPase 5): #1 -3.44
Pdfr (Pigment-dispersing factor receptor): #1 -0.13
Pss (Phosphatidylserine synthase): #1 -0.02
nmo (nemo): #1 0.29; #2 0.21
CG10019: #1 0.01
Sas-6 (Spindle assembly abnormal 6): #1 0.05
CG15127: #1 0.03; #2 0.18
fan (farinelli): #1 0.29
CG30016: #1 0.83
Hexim (Hexamethylene bisacetamide inducible): #1 0.29
flr (flare): #1 0.22
CR6900 (pseudo): #1 0.31
Marf (Mitochondrial assembly regulatory factor): #1 -0.41
PolD2 (DNA polymerase delta subunit 2): #1 0.77
NAT1: #1 0.57
Cad86C (Cadherin 86C): #1 0.36; #2 -0.01
Tudor-SN (Tudor staphylococcal nuclease): #1 0.02
CG17974: #1 0
Alg9 (ALG9, alpha-1,2-mannosyltransferase): #1 0.12
MED26 (Mediator complex subunit 26): #1 -3.53; #2 -1.27; #3 -2.39
CG30480: #1 0.23
dom (domino): #1 -1.88; #2 -0.33
nub (nubbin): #1 -0.05; #2 0.28; #3 0.93; #4 -0.49
Surf1 (Surfeit 1): #1 -0.22; #2 -0.02
Vtld + CG42529: #1 0.25
mts (microtubule star): #1 -1.63
CG10845: #1 0.14
CG17681: #1 0.36
Acp53C14b (Accessory gland protein 53C14b): #1 0.28
tor (torso): #1 0.05
His3:CG33818 + His3:CG33857 + His3:CG33806 + 20 more: #1 -1.66
CG12011: #1 0.59
Sec16 (Secretory 16): #1 -4.89; #2 0.45
CG11588: #1 0.22; #2 0.23

5 entries from above, sorted by “z-score, replicate 1”, highest first.
gene	reagent	z-score, replicate 1
CG12011	1	0.59
Sec16 (Secretory 16)	2	0.45
tor (torso)	1	0.05
His3:CG33818 + His3:CG33857 + His3:CG33806 + 20 more	1	-1.66
Sec16 (Secretory 16)	1	-4.89

The listing continues:
z-score, replicate 1, by gene and reagent
CR12628 + Mgstl: #1 0.3; #2 0.46
CG10184: #1 0.21
ergic53: #1 0.06
Mkp + CG34140: #1 0.18
TotM (Turandot M): #1 0.47
CanA-14F (Calcineurin A at 14F): #1 -3.07
lncRNA:CR32657 (long non-coding RNA:CR32657): #1 0.23
Stacl (Stac-like): #1 -2.85; #2 -0.23; #3 0.21; #4 0.14; #5 0.17
E2f1 (E2F transcription factor 1): #1 -1.5
Rsph1 (Radial spoke head protein 1): #1 0.33
CCT4 (Chaperonin containing TCP1 subunit 4): #1 -0.77
CG14829: #1 0.39
Sprn (Spermitin): #1 0.08
CG32236: #1 -0.05
t-Grip128 (testis-specific gamma-tubulin ring protein 128): #1 0.17
hop (hopscotch): #1 0.24
Cpr72Eb (Cuticular protein 72Eb): #1 0.08
Vago: #1 0.14
NimC2 (Nimrod C2): #1 0.08
Ir84a (Ionotropic receptor 84a): #1 0.34
Esp (Epidermal stripes and patches): #1 0.2
l(2)k10201 (lethal (2) k10201): #1 0.25; #2 0.28
Usp12-46 (Ubiquitin-specific protease 12/46): #1 0.37
zyd (zydeco): #1 0.14
CG6664: #1 -0.14
CG18234: #1 0.02
LeuRS (Leucyl-tRNA synthetase): #1 -0.99
